Read-out in experiment [1]: Bcl-2 (BAX) gene, BAX (gene 581)
In words: LTEA_HepaRG_BAX: Life Technologies and Expression Analysis (LTEA) Assay for Bcl-2 (BAX) gene using HepaRG (AID 2283470). Conditions: actives raise or lower the signal; mRNA level, 48 h. Summed up: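 Cells were thawed, plated for 48 h, moved to serum-free induction medium and dosed for 48 h (highest concentration 100 uM, half-log steps, 0.5% DMSO). Total RNA was then analysed for BAX expression by qRT-PCR.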

By UniProt entry, the sequences of proteins in these tests, tags left out. Where a name states a change or a piece, a line headed by the entry shows the natural chain unless it says otherwise.
UniProt P42574: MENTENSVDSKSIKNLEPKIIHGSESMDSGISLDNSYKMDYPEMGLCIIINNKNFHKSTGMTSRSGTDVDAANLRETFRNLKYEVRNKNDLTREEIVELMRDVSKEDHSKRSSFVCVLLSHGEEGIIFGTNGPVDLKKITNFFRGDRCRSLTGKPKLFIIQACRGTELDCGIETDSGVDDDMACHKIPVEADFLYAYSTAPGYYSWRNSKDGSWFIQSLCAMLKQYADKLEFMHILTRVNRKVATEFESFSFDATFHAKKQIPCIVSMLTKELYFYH
UniProt Q5TCH4: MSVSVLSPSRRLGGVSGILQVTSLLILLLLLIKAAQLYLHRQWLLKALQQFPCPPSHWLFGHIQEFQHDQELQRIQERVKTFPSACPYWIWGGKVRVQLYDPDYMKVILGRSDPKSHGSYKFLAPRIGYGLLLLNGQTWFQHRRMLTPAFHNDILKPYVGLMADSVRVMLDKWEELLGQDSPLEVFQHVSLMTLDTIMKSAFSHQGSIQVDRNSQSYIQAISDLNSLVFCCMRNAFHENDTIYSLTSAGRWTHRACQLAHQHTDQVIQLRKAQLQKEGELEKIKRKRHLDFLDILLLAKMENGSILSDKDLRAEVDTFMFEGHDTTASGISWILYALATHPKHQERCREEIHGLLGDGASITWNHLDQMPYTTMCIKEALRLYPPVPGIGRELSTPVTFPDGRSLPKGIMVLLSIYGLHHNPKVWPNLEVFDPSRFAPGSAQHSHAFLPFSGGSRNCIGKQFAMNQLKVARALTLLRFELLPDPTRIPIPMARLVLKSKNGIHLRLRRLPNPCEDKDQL
UniProt P22680: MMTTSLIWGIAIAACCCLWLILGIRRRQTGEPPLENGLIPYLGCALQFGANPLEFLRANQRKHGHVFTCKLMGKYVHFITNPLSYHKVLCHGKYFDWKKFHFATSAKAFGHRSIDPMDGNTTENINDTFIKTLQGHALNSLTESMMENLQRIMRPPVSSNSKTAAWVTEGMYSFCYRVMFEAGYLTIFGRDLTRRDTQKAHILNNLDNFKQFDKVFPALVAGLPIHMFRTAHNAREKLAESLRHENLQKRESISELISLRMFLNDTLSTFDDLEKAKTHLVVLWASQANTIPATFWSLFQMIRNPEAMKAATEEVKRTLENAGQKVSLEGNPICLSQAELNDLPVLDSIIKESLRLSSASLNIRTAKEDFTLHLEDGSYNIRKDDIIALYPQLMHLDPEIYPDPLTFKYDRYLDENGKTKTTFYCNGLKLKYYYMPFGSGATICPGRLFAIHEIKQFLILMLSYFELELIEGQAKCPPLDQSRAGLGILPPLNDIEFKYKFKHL
UniProt P04637, whole entry, looked up: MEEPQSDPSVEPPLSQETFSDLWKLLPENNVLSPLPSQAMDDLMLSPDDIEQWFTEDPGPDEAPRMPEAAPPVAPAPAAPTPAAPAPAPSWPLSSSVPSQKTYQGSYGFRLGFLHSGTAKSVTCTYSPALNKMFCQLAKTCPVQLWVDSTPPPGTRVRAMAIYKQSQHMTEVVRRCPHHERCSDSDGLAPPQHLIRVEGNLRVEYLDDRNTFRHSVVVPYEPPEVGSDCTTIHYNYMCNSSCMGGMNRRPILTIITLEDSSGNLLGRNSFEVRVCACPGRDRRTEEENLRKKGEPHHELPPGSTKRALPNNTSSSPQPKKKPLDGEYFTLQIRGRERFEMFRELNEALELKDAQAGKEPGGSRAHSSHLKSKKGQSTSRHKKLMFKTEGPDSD

Read-out in experiment [2]: growth arrest and DNA damage 45 (GADD45A), GADD45A (gene 1647)
In words: LTEA_HepaRG_GADD45A: Life Technologies and Expression Analysis (LTEA) Assay for growth arrest and DNA damage 45 (GADD45A) using HepaRG (AID 2283458). The conditions noted are these: actives raise or lower the signal; mRNA level, 48 h. Summed up: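 Transcript induction or loss, quantified by TaqMan qRT-PCR against three housekeeping genes, is the read-out. HepaRG cells received chemicals for 48 h across eight half-log concentrations from 100 uM in 0.5% DMSO; gain and loss fitted relative to DMSO.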

Read-out in experiment [3]: Caspase-3 (Homo sapiens) (UniProt P42574)
Nature of the experiment: LTEA_HepaRG_CASP3: Life Technologies and Expression Analysis (LTEA) Assay for cysteine-aspartic acid protease (CASP3) using HepaRG (AID 2283477). Conditions: actives raise or lower the signal; mRNA level, 48 h. Summed up:
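Transcript-level assay: CASP3 mRNA in human HepaRG after 48 h treatment, eight half-log concentrations from 100 uM in 0.5% DMSO, quantified by qRT-PCR.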

Read-out in experiment [4]: Cytochrome P450 4A22 (Homo sapiens) (UniProt Q5TCH4)
Nature of the experiment: LTEA_HepaRG_CYP4A22: Life Technologies and Expression Analysis (LTEA) Assay for Cytochrome P450 4A22 (CYP4A22) using HepaRG (AID 2283495). Conditions: actives raise or lower the signal; mRNA level, 48 h. Summed up:
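Concentration-response (8 points, max 100 uM, 0.5% DMSO) in human HepaRG liver cells after 48 h exposure. CYP4A22 mRNA by TaqMan qRT-PCR with housekeeping-gene normalization.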

Read-out in experiment [5]: sulfotransferase 2A1 (SULT2A1), SULT2A1 (gene 6822)
Nature of the experiment: LTEA_HepaRG_SULT2A1: Life Technologies and Expression Analysis (LTEA) Assay for sulfotransferase 2A1 (SULT2A1) using HepaRG (AID 2283531). The conditions noted are these: actives raise or lower the signal; mRNA level, 48 h. Summed up:
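Gene-expression endpoint in a human liver cell line: SULT2A1 mRNA change after 48 h chemical treatment, curves fitted in both directions relative to 0.5% DMSO vehicle. Concentrations spanned eight half-log steps from 100 uM.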

Read-out in experiment [6]: Cytochrome P450 (CYP24A1), CYP24A1 (gene 1591)
In words: LTEA_HepaRG_CYP24A1: Life Technologies and Expression Analysis (LTEA) Assay for Cytochrome P450 (CYP24A1) using HepaRG (AID 2283478). The conditions noted are these: actives raise or lower the signal; mRNA level, 48 h. Summed up:
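Gene expression of CYP24A1 by TaqMan qRT-PCR in HepaRG after 48 h treatment, highest concentration 100 uM; activity fitted in both directions relative to DMSO vehicle.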

Read-out in experiment [7]: Early growth response protein 1 (EGR1) transcription factor, EGR1 (gene 1958)
In words: LTEA_HepaRG_EGR1: Life Technologies and Expression Analysis (LTEA) Assay for Early growth response protein 1 (EGR1) transcription factor using HepaRG (AID 2283490). The conditions noted are these: actives raise or lower the signal; mRNA level, 48 h. Summed up:
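EGR1 transcript levels quantified by qRT-PCR (Fluidigm arrays) against three housekeeping genes after 48 h chemical exposure of HepaRG cells. Eight-point half-log series topping at 100 uM, 0.5% DMSO vehicle, analyzed for gain or loss.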

Read-out in experiment [8]: Cytochrome P450 7A1 (Homo sapiens) (UniProt P22680)
In words: LTEA_HepaRG_CYP7A1: Life Technologies and Expression Analysis (LTEA) Assay for Cytochrome P450 7A1 (CYP7A1) using HepaRG (AID 2283496). Conditions: actives raise or lower the signal; mRNA level, 48 h. Summed up:
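HepaRG, 48 h exposure, 8-pt half-log series from 100 uM, 0.5% DMSO vehicle, duplicates. Readout: TaqMan qRT-PCR mRNA vs three housekeeping genes; bidirectional curve fit against DMSO baseline.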

The nature of experiment [9]: ACEA_AR_antagonist_AUC_viability: ACEA Biosciences xCELLigence Real-Time Cell Analysis on Androgen Receptor Antagonism for Viability (AID 2283776; active means hit-call score of the fitted dose curve at least 0.9, where 1 is the maximum;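 further: 22Rv1 human prostate cancer cells growing on impedance electrode plates; area under impedance growth curve at 80 h after dosing as viability; hits lower the growth signal relative to DMSO meaning cytotoxicity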). Summed up: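 Viability endpoint from label-free cell-index monitoring: 22Rv1 cultures treated with an eight-point 1:4 dilution series starting at 100 uM final, AUC at 80 h fitted against DMSO.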
Read-out in experiment [10]: growth arrest and DNA damage 45 (GADD45B), GADD45B (gene 4616)
Nature of the experiment: LTEA_HepaRG_GADD45B: Life Technologies and Expression Analysis (LTEA) Assay for growth arrest and DNA damage 45 (GADD45B) using HepaRG (AID 2283461). The conditions noted are these: actives raise or lower the signal; mRNA level, 48 h. Summed up: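 Human HepaRG monolayers receive chemicals for 48 h at eight half-log concentrations, highest 100 uM, in 0.5% DMSO. Expression is measured by TaqMan qRT-PCR and normalized to ACTB, GAPDH and POLR2A.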

Read-out in experiment [11]: Insulin Like Growth Factor 1 (IGF1), IGF1 (gene 3479)
In words: LTEA_HepaRG_IGF1: Life Technologies and Expression Analysis (LTEA) Assay for Insulin Like Growth Factor 1 (IGF1) using HepaRG (AID 2283506). The conditions noted are these: actives raise or lower the signal; mRNA level, 48 h. Summed up: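 Cells are thawed, plated and cultured 48 h, then exposed in duplicate to chemical (highest 100 uM, half-log steps, 0.5% DMSO) for another 48 h. Total RNA is analysed by Fluidigm qRT-PCR for IGF1 expression relative to vehicle.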

Read-out in experiment [12]: Phosphatase and tensin (PTEN), PTEN (gene 5728)
Nature of the experiment: LTEA_HepaRG_PTEN: Life Technologies and Expression Analysis (LTEA) Assay for Phosphatase and tensin (PTEN) using HepaRG (AID 2283523). The conditions noted are these: actives raise or lower the signal; mRNA level, 48 h. Summed up: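 Read-out: TaqMan qRT-PCR of PTEN transcript, normalized to three housekeeping genes, fitted in both directions against 0.5% DMSO. Differentiated human HepaRG cultures received chemicals for 48 h, eight-point half-log series topping at 100 uM.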

Experiment [13] in a line: Tanguay_ZF_120hpf_SOMI_legacy: (Legacy) Oregon State University Tanguay Lab 120 Hour Post-fertilization zebrafish Assay for Somite Malformation (AID 2283647; active means hit-call score of the fitted dose curve at least 0.9, where 1 is the maximum). Summed up:
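Somitogenesis defects are recorded as binary calls in whole larvae at 120 hpf after continuous static chemical exposure starting at 6 hpf in dechorionated 5D embryos. DMSO serves as negative control and baseline.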

Experiment [14] in a line: CCTE_Simmons_MITO_basal_resp_rate: CCTE's HepG2 Seahorse XF Respirometric Screening Assay at Basal Respiratory State, Simmons Lab (AID 2284001). The conditions noted are these: actives raise or lower the signal. Summed up:
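Basal-phase OCR in HepG2 cells, read at 6-min intervals across a 72-min run, with test compound injected at 125 nM–100 uM final (7 points). Fitted both directions against DMSO; three biological replicates per concentration.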

Read-out in experiment [15]: matrix metalloproteinase-3 (MMP3), MMP3 (gene 4314)
Nature of the experiment: LTEA_HepaRG_MMP3: Life Technologies and Expression Analysis (LTEA) Assay for matrix metalloproteinase-3 (MMP3) using HepaRG (AID 2283519). The conditions noted are these: actives raise or lower the signal; mRNA level, 48 h. Summed up: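 Fluidigm-based TaqMan qRT-PCR, normalized to ACTB, GAPDH and POLR2A and fitted bidirectionally versus 0.5% DMSO, measured transcript levels. Treatment: duplicate 48 h exposures of HepaRG cells, ~100,000/well, to eight half-log concentrations topping at 100 uM.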

Read-out in experiment [16]: Paternally Expressed 10 (PEG10), PEG10 (gene 23089)
In words: LTEA_HepaRG_PEG10: Life Technologies and Expression Analysis (LTEA) Assay for Paternally Expressed 10 (PEG10) using HepaRG (AID 2283520).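 Further: differentiated HepaRG human liver cells in serum-free induction medium with 0.5% DMSO; PEG10 transcript by qRT-PCR normalised to ACTB GAPDH and POLR2A.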 Conditions: actives raise or lower the signal; mRNA level, 48 h. Summed up:
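Human HepaRG cultures are dosed for 48 h across an eight-point half-log series starting at 100 uM, with 0.5% DMSO as vehicle and baseline. Gain or loss of PEG10 transcript is measured by qRT-PCR and fitted in both directions.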

A short description of experiment [17]: CCTE_Shafer_MEA_acute_per_burst_spike_number_mean: CCTE's Neural Acute Assay for Average Number of Spikes Per Burst, Shafer Lab (AID 2284015).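 Further: hits are decreases in mean spikes per burst versus baseline.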 Summed up: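 We recorded spontaneous network firing of rat cortical neurons for 40 min before and 40 min during exposure to compound at 0.03-40 uM, at 37 C. Spikes were detected adaptively at 8x rms noise, and the change in average spikes per burst was fitted against DMSO.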

Read-out in experiment [18]: HGF (gene 3082)
Nature of the experiment: LTEA_HepaRG_HGF: Life Technologies and Expression Analysis (LTEA) Assay for Hepatocyte Growth Facto (HGF) using HepaRG (AID 2283505). Conditions: actives raise or lower the signal; mRNA level, 48 h. Summed up: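 Using HepaRG monolayers kept in 0.5% DMSO, chemicals were tested in duplicate over eight half-log concentrations from 100 uM for 48 h. Endpoint: HGF mRNA change relative to DMSO, normalized to ACTB/GAPDH/POLR2A.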

The nature of experiment [19]: CPHEA_Stoker_NIS_Cytotoxicity: Cytotoxicity Assessment for CPHEA's Radioactive Iodide Uptake (RAIU) Assay for Sodium/Iodide Symporter (NIS) Inhibition, Stoker and Laws Labs (AID 2283897; active means hit-call score of the fitted dose curve at least 0.9, where 1 is the maximum). Summed up:
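Viability in hNIS-HEK293T-EPA cells is scored as a drop in luciferase-detected ATP following 2-hour room-temperature exposure (0.001–100uM; triplicate wells, three cell passages), with DMSO as negative control.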

Experiment [20] is described as follows: CCTE_Mundy_HCI_Cortical_NOG_NeuronCount: CCTE's Neurite Outgrowth Assay in rat cortical cells for Neuron Count, Mundy Lab (AID 2284236; active means hit-call score of the fitted dose curve at least 0.9, where 1 is the maximum;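 further: neurons counted by imaging betaIII-tubulin and Hoechst stained cortical cells; cells exposed to compound for about 48 hours before fixation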). Summed up:
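Read-out: neuron number by high-content imaging of betaIII-tubulin (Alexa Fluor-488) and Hoechst-labelled rat primary cortical cells.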

In experiment [21] the target is Cellular tumor antigen p53 (Homo sapiens) (UniProt P04637). In words: TOX21_p53_BLA_p2_ratio: Tox21 HCT-116 p53 Agonism Beta-lactamase Assay, Ratio, Phase 2 (AID 2283592; active means hit-call score of the fitted dose curve at least 0.9, where 1 is the maximum). Summed up:
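DMSO-normalized, positive-direction endpoint derived from the 460 nm/530 nm FRET ratio in HCT116 p53 beta-lactamase reporter cells exposed 16 h at 37C and loaded with CCF4-AM for 2 h.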

Read-out in experiment [22]: JUN Transcription Factor, JUN (gene 3725)
Nature of the experiment: LTEA_HepaRG_JUN: Life Technologies and Expression Analysis (LTEA) Assay for JUN Transcription Factor using HepaRG (AID 2283513). Conditions: actives raise or lower the signal; mRNA level, 48 h. Summed up:
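Read-out is JUN transcript level by TaqMan qRT-PCR, normalized to ACTB, GAPDH and POLR2A, after 48 h chemical treatment of HepaRG cells. Concentration-response spanned eight half-log points up to 100 uM in 0.5% DMSO.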

The nature of experiment [23]: TOX21_p53_BLA_p2_viability: Viability Assessment in the Tox21 HCT-116 p53 Agonism Beta-lactamase Assay, Phase 2 (AID 2283591; active means hit-call score of the fitted dose curve at least 0.9, where 1 is the maximum;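 further: compound exposure lasted 16 h at 37 °C; actives lower the ATP signal meaning cytotoxicity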). Summed up: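 Cytotoxicity readout: CellTiter-Glo ATP luminescence, 30 min at room temperature, after the beta-lactamase read. Cells were HCT116 exposed 16 h at 37C to compounds pin-transferred at 217-fold dilution from DMSO stocks.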
A short description of experiment [24]: ATG_XTT_Cytotoxicity: Cytotoxicity Assessment in the Attagene TRANS-FACTORIAL HepG2 Assay (AID 2283584; active means hit-call score of the fitted dose curve at least 0.9, where 1 is the maximum). Summed up:
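24 h chemical exposure of reporter-transfected HepG2; XTT signal loss vs DMSO indicates cytotoxicity.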

For part of these data: The hits were mostly taken out for another list; the other results follow. Results filed as inconclusive are left out. Only a part is listed here, and it is no random draw. A structure can be active in one record and inactive in another. Activity calls are given as the source filed them. How the source made its calls, unless noted: active means hit-call score of the fitted dose curve at least 0.9, where 1 is the maximum; inactive means score below 0.9.

As a reminder, the AC50 is the midpoint of the concentration-response curve, whichever way the signal moves.

For `CC1=NNC(=O)N(/N=C/c2cccnc2)C1`, the result in [1] was inactive.
With `CC12CC1(C)C(=O)N(c1cc(Cl)cc(Cl)c1)C2=O` (configuration not stated), the compound was classed as inactive in experiment [2], in experiment [3] and in experiment [5]. Further, in experiment [4], the AC50 is active: 9.92 µM.
As for `CCN(CC)N=O`, the compound was called inactive in experiment [6], in experiment [7], in [8] and in experiment [9].
As to `O=C(O)c1cc(Oc2ccc(C(F)(F)F)cc2Cl)ccc1[N+](=O)[O-]`, the compound was classed as inactive in experiment [2], in experiment [10], in experiment [11], in experiment [12] and in [13]. The concentration at half-maximal activity (AC50) in experiment [14] was active: 31.1 µM.
On to `Nc1ccc(Cc2ccc(N)cc2)cc1`, for which the compound was called inactive in experiment [15].
In the case of `CC(c1ccc(O)cc1)(c1ccc(O)cc1)c1ccc(O)cc1`, the AC50 in [16] was active: 23.9 µM. For the same compound, the compound was classed as inactive in experiment [17].
`CCOc1cc(Oc2ccc(C(F)(F)F)cc2Cl)ccc1[N+](=O)[O-]`: the result in [18] and in experiment [19] was inactive. The AC50 in experiment [20] was active: 9.92 µM.
As to `C=C1CC[C@@]2(O)[C@H]3Cc4ccc(O)c5c4[C@@]2(CCN3CC2CC2)[C@H]1O5`, the outcome in [21] was inactive.
For the compound `ClC1=C(Cl)[C@]2(Cl)[C@@H]3[C@@H](Cl)[C@H]4O[C@H]4[C@@H]3C1(Cl)C2(Cl)Cl`, in experiment [22], the call was inactive.
Consider `C[C@]12C/C(=C/O)C(=O)C[C@@H]1CC[C@@H]1[C@@H]2CC[C@@]2(C)[C@H]1CC[C@]2(C)O`, for which the AC50 in experiment [23] was active: 62.2 µM.
Turning to `COP(=S)(OC)Oc1ccc(Sc2ccc(OP(=S)(OC)OC)cc2)cc1`, in experiment [24], the compound was called inactive.
For the compound `O=C(Nc1ccc2[nH]ccc2c1)c1cc2cc(F)ccc2n1Cc1cccc(F)c1`, the AC50 in experiment [23] was active: 43.7 µM.
On to `CCOC(=O)C(C)OC(=O)c1cc(Oc2ccc(C(F)(F)F)cc2Cl)ccc1[N+](=O)[O-]` (configuration not stated), for which the call in experiment [15] was inactive.

For the origin of these results see PubChem BioAssay (EPA / NIEHS).
